For at least one compound, name, drawing or mass did not settle the structure.
Experiments:
TSPYL5 protein = assay: Location of TSPYL5 expression in cells after AKT/PI3K inhibitor (fluorescent microscope); assay type: cell-based; details: A549 cells, 10 μM MK2206 or 50 μM LY294002, 4 hours
Procedure: (§1) 1×10^5 A549 cells placed on the culture dish with the cover glass were treated with 10 μM of MK2206 (AKT inhibitor) and 50 μM of LY294002 (PI3K inhibitor) for 4 hours. The cells were fixed in 4% paraformaldehyde solution for 20 minutes. Then, the cover glass was washed with PBS three times and then treated with 0.5% TritonX-100 solution for 5 minutes. The cover glass was washed again with PBS three times. The cells were treated with 1% BSA for 2 hours, followed by reaction with the primary antibody TSPYL5 (Santa Cruz) diluted in PBS buffer at the ratio of 1:100 for 2 hours. Then, the cells were reacted with the secondary antibody Rabbit (Cell Signaling Technology) diluted at the ratio of 1:1000 for 1 hour. The cells were washed with PBS three times, and then the nucleus was stained with DAPI solution for 5 minutes. The location and the amount of TSPYL5 expression were investigated under fluorescent microscope.

A549 cells = assay: Western blotting after AKT/PI3K inhibitor treatment; assay type: cell-based; details: 10 μM MK2206 or 50 μM LY294002, Western blotting
Procedure: Western blotting was performed as follows in order to investigate the protein expression. Lysis buffer (0.05 M Tris-Cl (pH7.4), 0.15 M NaCl, 0.25% deoxycholic acid, 1% NP-40, 1 mM EDTA, and protease inhibitor cocktail) was added to the target cells, followed by reaction at 4° C. for 30 minutes. The cell lysate was centrifuged at 4° C. to obtain the supernatant. The supernatant was quantified. 40 μg of each protein was loaded on SDS-gel, followed by electrophoresis. The proteins were transferred onto nitrocellulose membrane, followed by blocking with BSA containing buffer at room temperature for 30 minutes. Then, the membrane was reacted with the primary antibody PTEN (1:1000), TSPYL5 (Santa Cruz), ALDH1A1, ALDH1A3 (Abcam), CD44, and β-actin, or GAPDH (CST) for 4 hours. Then, the membrane was reacted with the secondary antibody (1:10000). The nitrocellulose membrane was washed 5 times with PBS, followed by sensitization on the film with the detection solution.
as §1
Western blotting was also performed by the same manner as described in Experimental Example <1-1>. As a result, when AKT or PI3K inhibitor was treated to the cells, the expressions of TSPYL5, phosphorylated AKT, CD44, ALDH1A3, and ALDH1A1 were reduced.

O=c1cc(N2CCOCC2)oc2c(-c3ccccc3)cccc12 [LY294002]
TSPYL5 expression in the nucleus (TSPYL5 protein): not expressed in the nucleus
expression of ALDH1A1 (A549 cells): reduced
expression of ALDH1A3 (A549 cells): reduced
expression of CD44 (A549 cells): reduced
expression of TSPYL5 (A549 cells): reduced
expression of phosphorylated AKT (A549 cells): reduced
